Experimental data published in patent publication US20260152543A1 (KRIYA THERAPEUTICS, published 2026).
Results are given in words; binding and its absence hold for the method and conditions named. Binding can be weak; no strength is given.

The chains behind the UniProt entries cited, without tags or fusion partners. Where a name states a change or a piece, a line headed by the entry shows the natural chain unless it says otherwise. Residues count along the entry.
UniProt P01024: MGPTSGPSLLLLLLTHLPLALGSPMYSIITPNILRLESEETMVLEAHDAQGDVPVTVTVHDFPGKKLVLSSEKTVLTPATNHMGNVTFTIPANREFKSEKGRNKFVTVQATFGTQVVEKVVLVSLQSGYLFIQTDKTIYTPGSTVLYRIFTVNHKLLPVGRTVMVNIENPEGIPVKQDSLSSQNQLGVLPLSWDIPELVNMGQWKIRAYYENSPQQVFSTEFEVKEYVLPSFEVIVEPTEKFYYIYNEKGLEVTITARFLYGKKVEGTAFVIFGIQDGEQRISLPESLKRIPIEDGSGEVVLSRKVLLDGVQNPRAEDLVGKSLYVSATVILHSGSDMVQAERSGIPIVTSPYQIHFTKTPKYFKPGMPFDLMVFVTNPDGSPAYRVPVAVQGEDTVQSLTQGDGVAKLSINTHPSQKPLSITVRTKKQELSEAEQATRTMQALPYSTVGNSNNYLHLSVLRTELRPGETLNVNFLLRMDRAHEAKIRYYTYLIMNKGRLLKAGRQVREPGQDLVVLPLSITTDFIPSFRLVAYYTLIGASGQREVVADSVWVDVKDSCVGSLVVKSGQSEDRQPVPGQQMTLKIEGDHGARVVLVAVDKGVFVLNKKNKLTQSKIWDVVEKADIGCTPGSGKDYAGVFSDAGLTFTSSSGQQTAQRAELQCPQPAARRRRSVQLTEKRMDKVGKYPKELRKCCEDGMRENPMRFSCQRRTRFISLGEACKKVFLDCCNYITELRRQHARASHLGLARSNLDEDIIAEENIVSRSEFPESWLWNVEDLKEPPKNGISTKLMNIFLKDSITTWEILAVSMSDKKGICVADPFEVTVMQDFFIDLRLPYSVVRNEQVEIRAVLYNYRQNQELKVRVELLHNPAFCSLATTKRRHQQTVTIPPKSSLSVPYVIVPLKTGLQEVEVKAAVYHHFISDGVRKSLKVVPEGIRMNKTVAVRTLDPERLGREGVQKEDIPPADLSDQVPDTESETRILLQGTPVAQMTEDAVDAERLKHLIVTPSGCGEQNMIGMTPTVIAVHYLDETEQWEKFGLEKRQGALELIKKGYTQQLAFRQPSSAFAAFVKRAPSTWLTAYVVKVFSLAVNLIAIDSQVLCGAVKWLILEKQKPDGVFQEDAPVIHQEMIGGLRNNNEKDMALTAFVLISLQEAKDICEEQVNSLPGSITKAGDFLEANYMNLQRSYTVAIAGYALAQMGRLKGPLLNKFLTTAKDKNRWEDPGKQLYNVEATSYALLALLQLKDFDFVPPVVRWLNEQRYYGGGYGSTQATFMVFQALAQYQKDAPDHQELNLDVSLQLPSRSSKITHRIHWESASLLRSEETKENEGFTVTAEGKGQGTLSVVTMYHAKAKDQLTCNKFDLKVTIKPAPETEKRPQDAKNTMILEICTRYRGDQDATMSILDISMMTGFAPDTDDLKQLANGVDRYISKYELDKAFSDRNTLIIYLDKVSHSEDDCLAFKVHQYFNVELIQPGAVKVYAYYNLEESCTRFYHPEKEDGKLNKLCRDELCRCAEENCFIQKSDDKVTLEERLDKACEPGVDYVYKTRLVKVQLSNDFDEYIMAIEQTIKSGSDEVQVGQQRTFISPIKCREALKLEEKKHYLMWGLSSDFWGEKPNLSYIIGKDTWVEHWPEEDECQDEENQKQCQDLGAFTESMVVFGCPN
UniProt P17927, residues 42-1971: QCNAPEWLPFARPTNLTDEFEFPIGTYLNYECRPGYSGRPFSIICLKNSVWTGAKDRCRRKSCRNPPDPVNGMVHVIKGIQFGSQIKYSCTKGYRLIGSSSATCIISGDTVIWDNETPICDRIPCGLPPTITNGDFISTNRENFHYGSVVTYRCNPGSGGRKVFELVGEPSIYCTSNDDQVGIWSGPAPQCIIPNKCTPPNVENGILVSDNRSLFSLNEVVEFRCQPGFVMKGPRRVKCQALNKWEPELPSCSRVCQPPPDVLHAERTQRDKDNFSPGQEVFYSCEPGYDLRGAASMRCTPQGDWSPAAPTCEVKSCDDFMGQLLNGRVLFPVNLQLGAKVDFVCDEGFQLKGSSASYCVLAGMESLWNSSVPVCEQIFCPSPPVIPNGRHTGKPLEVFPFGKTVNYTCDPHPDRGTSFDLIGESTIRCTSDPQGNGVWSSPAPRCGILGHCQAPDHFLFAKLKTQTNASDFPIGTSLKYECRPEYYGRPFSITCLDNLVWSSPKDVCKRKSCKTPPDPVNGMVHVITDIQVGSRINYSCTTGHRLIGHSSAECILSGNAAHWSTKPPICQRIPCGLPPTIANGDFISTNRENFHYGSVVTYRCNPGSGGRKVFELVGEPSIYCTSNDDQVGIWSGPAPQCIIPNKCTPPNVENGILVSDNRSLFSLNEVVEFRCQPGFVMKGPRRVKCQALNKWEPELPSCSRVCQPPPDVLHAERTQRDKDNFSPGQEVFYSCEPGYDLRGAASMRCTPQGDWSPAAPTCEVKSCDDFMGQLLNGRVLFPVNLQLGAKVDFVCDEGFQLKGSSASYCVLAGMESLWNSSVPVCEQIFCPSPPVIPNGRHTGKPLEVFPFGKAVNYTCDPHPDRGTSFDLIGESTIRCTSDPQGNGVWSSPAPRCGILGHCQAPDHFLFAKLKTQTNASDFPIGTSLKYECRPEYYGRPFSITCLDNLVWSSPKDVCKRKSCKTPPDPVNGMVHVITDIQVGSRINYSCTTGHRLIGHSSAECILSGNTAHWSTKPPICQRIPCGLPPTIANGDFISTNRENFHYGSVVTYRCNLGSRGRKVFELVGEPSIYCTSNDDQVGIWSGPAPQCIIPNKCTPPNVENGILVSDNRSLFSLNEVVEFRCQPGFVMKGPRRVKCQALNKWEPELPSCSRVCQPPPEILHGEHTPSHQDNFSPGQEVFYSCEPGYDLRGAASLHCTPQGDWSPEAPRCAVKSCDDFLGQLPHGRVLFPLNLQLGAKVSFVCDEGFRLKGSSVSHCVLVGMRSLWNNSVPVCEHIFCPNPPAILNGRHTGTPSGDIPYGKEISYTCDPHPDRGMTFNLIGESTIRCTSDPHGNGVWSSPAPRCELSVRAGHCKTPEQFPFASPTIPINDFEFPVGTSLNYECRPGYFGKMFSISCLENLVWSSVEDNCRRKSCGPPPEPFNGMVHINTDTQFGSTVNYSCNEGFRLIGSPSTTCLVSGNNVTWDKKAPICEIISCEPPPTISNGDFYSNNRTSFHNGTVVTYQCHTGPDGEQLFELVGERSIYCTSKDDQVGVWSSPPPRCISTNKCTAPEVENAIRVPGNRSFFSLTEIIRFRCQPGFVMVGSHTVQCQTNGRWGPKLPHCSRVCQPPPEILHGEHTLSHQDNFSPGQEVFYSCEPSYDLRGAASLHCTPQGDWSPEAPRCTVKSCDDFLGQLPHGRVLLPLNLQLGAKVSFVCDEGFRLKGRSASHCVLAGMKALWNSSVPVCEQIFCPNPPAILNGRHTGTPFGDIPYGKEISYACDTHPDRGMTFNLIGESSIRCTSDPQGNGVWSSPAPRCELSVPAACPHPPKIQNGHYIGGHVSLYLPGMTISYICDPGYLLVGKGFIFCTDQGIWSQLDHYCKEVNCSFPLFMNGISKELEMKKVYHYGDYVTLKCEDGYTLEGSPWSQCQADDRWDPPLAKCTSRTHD

Target: C3b (Complement Tech) (UniProt P01024)
Test: SPR (Biacore 8K), His-tagged CR1 captured as ligand on a CM5 chip through anti-His antibody, C3b injected as analyte, 150 s association, 300 s dissociation

Recombinant His-tagged human CR1 (R&D Systems) (from UniProt P17927 42-1971) (receptor)
binding: binds
